# Reference: patent publication US4250085 (dated 1981)
# Assay: general procedure: solution-phase peptide synthesis; N-hydroxysuccinimide ester (dicyclohexylcarbodiimide)
# [1] = coupling step, monobenzylamine salt
substance,measurement,setting,value
(1R)-1-(N-sarcosyl-L-alanyl-L-alanylamino)-ethylphosphonic acid,step yield,"late stage modification step, run 1",93% and 87%
(1R)-1-(N-sarcosyl-L-histidyl-L-alanylamino)-ethylphosphonic acid,step yield,"late stage modification step, monohydrobromide salt",69%
(1R)-1-(N-sarcosyl-glycyl-L-alanylamino)-ethylphosphonic acid,step yield,late stage modification step,56%
(1R)-1-[(N-benzyloxycarbonyl-sarcosyl-L-alanyl-L-alanyl)amino]-ethylphosphonic acid,step yield,[1],81%
(1R)-1-[(N-benzyloxycarbonyl-sarcosyl-L-histidyl-L-alanyl)amino]-ethylphosphonic acid,step yield,coupling step,95%
(1R)-1-[(N-benzyloxycarbonyl-sarcosyl-L-methionyl-L-alanyl)amino]-ethylphosphonic acid,step yield,[1],76%
(1R)-1-[(N-benzyloxycarbonyl-sarcosyl-glycyl-L-alanyl)amino]-ethylphosphonic acid,step yield,coupling step,95%
same,step yield,[1],65%
(N-sarcosyl-L-alanyl-L-alanylamino)-methylphosphonic acid,step yield,late stage modification step,85%
[(N-benzyloxycarbonyl-sarcosyl-L-alanyl-L-alanyl)amino]-methylphosphonic acid,step yield,[1],73%

# Where “and” joins values, the source holds several entries; their conditions need not be identical. Identical values can stand only once.
